# Assay results: the supplement of paper PMC8728848
# This is one part of the list.
# B1: PX14379D-pdi-530-26-530 (Parabacteroides distasonis) (protein)
# chain: DETVYDKLPADDFGQSTAELNALIGNSHNTMKKFWTEYMHLSECSGSMAVTPTRRGGDWYDGGQYREIYMHTWTSQTSRVKSAWKAATEAIGTCNEAIRKLQNSEILTEEEKAQDVADLRGVRAFWIYVMMDYWGNIPLLTEFHPTDKVFPGNSSRQEVFDWLIQEVEEIKDICPPATTENYGSFTQGAAYSLLAKLYLNAEAWGVTFSGNAYQKVIDNCDKVMAMGYILEPNWKDNFSVTNENSKEAILAATFSSSDTGNDGNVKNELHNNTLHYKDYLSLGITASGTWNGICAQPEYVRLFDEEDARLDGTFLTGLMIDKSTGKPIMTDHNNELNHTIDVNMIPGMEYDGTNWSAVEQHDGARCFKWEFASDLTSSMGNDFHIFRLADIYLMKAEALLRGGGSVSEATALVNTIRERGYGNSDHNYATVTLKEVQLERRLELAWEVYSRQDDIRFGCFTTGMWPQSNCERKADDYLKLLPVSQDAWQVNPNLKQNPGYAAFSK
# Experiments:
# Test in all cases: glycan array binding signal (z-score within array); higher = stronger binding
# Details in all cases: glycan notation: IUPAC condensed, linker removed
# [1] = molecular target: Gal(b1-3)GlcNAc(b1-2)Man(a1-3)[Gal(b1-3)GlcNAc(b1-2)Man(a1-6)]Man(b1-4)GlcNAc(b1-4)[Fuc(a1-6)]GlcNAc
# Procedure, shortened: (§1)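 Glycan array data came from 3228 arrays in the Consortium for Functional Glycomics database, and only arrays with an available protein sequence were kept. Glycan names were put into IUPAC-condensed notation, and columns mapping to the same glycan were averaged. The binding signal is a within-array Z-score, averaged across arrays of one protein sequence run at different concentrations or buffers and across linkers. A negative Z-score can be read as non-binding.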
# [2] = molecular target: Gal(b1-3)GlcNAc(b1-2)Man(a1-3)[GlcNAc(b1-4)][Gal(b1-3)GlcNAc(b1-2)Man(a1-6)]Man(b1-4)GlcNAc(b1-4)GlcNAc
# Procedure, shortened: as §1
# [3] = molecular target: Gal(b1-3)GlcNAc(b1-2)[Gal(b1-3)GlcNAc(b1-6)]Man(a1-6)[Gal(b1-3)GlcNAc(b1-2)Man(a1-3)]Man(b1-4)GlcNAc(b1-4)GlcNAc
# Procedure, shortened: as §1
# [4] = molecular target: Gal(b1-3)GlcNAc(b1-3)Gal(b1-3)GlcNAc
# Procedure, shortened: as §1
# [5] = molecular target: Gal(b1-3)GlcNAc(b1-3)Gal(b1-4)Glc
# Procedure, shortened: as §1
# [6] = molecular target: Gal(b1-3)GlcNAc(b1-3)Gal(b1-4)GlcNAc
# Procedure, shortened: as §1
# [7] = molecular target: Gal(b1-3)GlcNAc(b1-3)Gal(b1-4)GlcNAc(b1-2)Man(a1-3)[Gal(b1-3)GlcNAc(b1-3)Gal(b1-4)GlcNAc(b1-2)Man(a1-6)]Man(b1-4)GlcNAc(b1-4)GlcNAc
# Procedure, shortened: as §1
# [8] = molecular target: Gal(b1-3)GlcNAc(b1-3)Gal(b1-4)GlcNAc(b1-2)[Gal(b1-3)GlcNAc(b1-3)Gal(b1-4)GlcNAc(b1-6)]Man(a1-6)[Gal(b1-3)GlcNAc(b1-3)Gal(b1-4)GlcNAc(b1-2)Man(a1-3)]Man(b1-4)GlcNAc(b1-4)[Fuc(a1-6)]GlcNAc
# Procedure, shortened: as §1
# [9] = molecular target: Gal(b1-3)GlcNAc(b1-3)Gal(b1-4)GlcNAc(b1-3)Gal(b1-4)GlcNAc(b1-2)[Gal(b1-3)GlcNAc(b1-3)Gal(b1-4)GlcNAc(b1-3)Gal(b1-4)GlcNAc(b1-6)]Man(a1-6)[Gal(b1-3)GlcNAc(b1-3)Gal(b1-4)GlcNAc(b1-3)Gal(b1-4)GlcNAc(b1-2)Man(a1-3)]Man(b1-4)GlcNAc(b1-4)[Fuc(a1-6)]GlcNAc
# Procedure, shortened: as §1
# [10] = molecular target: Gal(b1-3)GlcNAc(b1-3)Gal(b1-4)GlcNAc(b1-6)[Gal(b1-3)GlcNAc(b1-3)]Gal(b1-4)Glc
# Procedure, shortened: as §1
# [11] = molecular target: Gal(b1-3)GlcNAc(b1-3)Gal(b1-4)[Fuc(a1-3)]GlcNAc
# Procedure, shortened: as §1
# [12] = molecular target: Gal(b1-3)GlcNAc(b1-3)Gal(b1-4)[Fuc(a1-3)]GlcNAc(b1-6)[Gal(b1-3)GlcNAc(b1-3)]Gal(b1-4)Glc
# Procedure, shortened: as §1
# [13] = molecular target: Gal(b1-3)GlcNAc(b1-3)GalNAc
# Procedure, shortened: as §1
# [14] = molecular target: Gal(b1-3)GlcNAc(b1-6)Gal(b1-4)GlcNAc
# Procedure, shortened: as §1
# [15] = molecular target: Gal(b1-3)GlcNAc(b1-6)GalNAc
# Procedure, shortened: as §1
# [16] = molecular target: Gal(b1-3)GlcNAc(b1-6)[Gal(b1-3)]GalNAc
# Procedure, shortened: as §1
# Gal(b1-3)GlcNAc6S = molecular target: Gal(b1-3)GlcNAc6S
# Procedure, shortened: as §1
# [17] = molecular target: Gal(b1-3)[Fuc(a1-4)]GlcNAc
# Procedure, shortened: as §1
# [18] = molecular target: Gal(b1-3)[Fuc(a1-4)]GlcNAc(b1-2)Man
# Procedure, shortened: as §1
# [19] = molecular target: Gal(b1-3)[Fuc(a1-4)]GlcNAc(b1-2)Man(a1-3)[Gal(b1-3)[Fuc(a1-4)]GlcNAc(b1-2)Man(a1-6)]Man(b1-4)GlcNAc(b1-4)[Fuc(a1-6)]GlcNAc
# Procedure, shortened: as §1
# [20] = molecular target: Gal(b1-3)[Fuc(a1-4)]GlcNAc(b1-3)Gal(b1-3)[Fuc(a1-4)]GlcNAc
# Procedure, shortened: as §1
# [21] = molecular target: Gal(b1-3)[Fuc(a1-4)]GlcNAc(b1-3)Gal(b1-4)[Fuc(a1-3)]GlcNAc
# Procedure, shortened: as §1
# [22] = molecular target: Gal(b1-3)[Fuc(a1-4)]GlcNAc(b1-6)GalNAc
# Procedure, shortened: as §1
# [23] = molecular target: Gal(b1-3)[GlcNAc(b1-6)]GalNAc
# Procedure, shortened: as §1
# [24] = molecular target: Gal(b1-3)[Neu5Ac(a2-6)]GalNAc
# Procedure, shortened: as §1
# [25] = molecular target: Gal(b1-3)[Neu5Ac(a2-6)]GlcNAc(b1-4)Gal(b1-4)Glc
# Procedure, shortened: as §1
# [26] = molecular target: Gal(b1-3)[Neu5Ac(b2-6)]GalNAc
# Procedure, shortened: as §1
# Gal(b1-4)Gal = molecular target: Gal(b1-4)Gal
# Procedure, shortened: as §1
# [27] = molecular target: Gal(b1-4)GalNAc(a1-3)[Fuc(a1-2)]Gal(b1-4)GlcNAc
# Procedure, shortened: as §1
# [28] = molecular target: Gal(b1-4)GalNAc(b1-3)[Fuc(a1-2)]Gal(b1-4)GlcNAc
# Procedure, shortened: as §1
# Gal(b1-4)Glc = molecular target: Gal(b1-4)Glc
# Procedure, shortened: as §1
# Gal(b1-4)Glc6S = molecular target: Gal(b1-4)Glc6S
# Procedure, shortened: as §1
# Gal(b1-4)GlcNAc = molecular target: Gal(b1-4)GlcNAc
# Procedure, shortened: as §1
# [29] = molecular target: Gal(b1-4)GlcNAc(a1-6)Gal(b1-4)GlcNAc
# Procedure, shortened: as §1
# Gal(b1-4)GlcNAc(b1-2)Man = molecular target: Gal(b1-4)GlcNAc(b1-2)Man
# Procedure, shortened: as §1
# [30] = molecular target: Gal(b1-4)GlcNAc(b1-2)Man(a1-3)Man(b1-4)GlcNAc(b1-4)GlcNAc
# Procedure, shortened: as §1
# [31] = molecular target: Gal(b1-4)GlcNAc(b1-2)Man(a1-3)[Gal(b1-4)GlcNAc(b1-2)Man(a1-6)]Man(b1-4)GlcNAc(b1-4)GlcNAc
# Procedure, shortened: as §1
binder,measurement,setting,value
B1,glycan array binding signal (z-score),[1],0.577
same,glycan array binding signal (z-score),[2],0.644
same,glycan array binding signal (z-score),[3],-0.706
same,glycan array binding signal (z-score),[4],-0.766
same,glycan array binding signal (z-score),[5],-0.552
same,glycan array binding signal (z-score),[6],-0.777
same,glycan array binding signal (z-score),[7],0.63
same,glycan array binding signal (z-score),[8],1.7
same,glycan array binding signal (z-score),[9],0.912
same,glycan array binding signal (z-score),[10],0.395
same,glycan array binding signal (z-score),[11],-0.369
same,glycan array binding signal (z-score),[12],-0.784
same,glycan array binding signal (z-score),[13],-0.25
same,glycan array binding signal (z-score),[14],-1.22
same,glycan array binding signal (z-score),[15],-0.974
same,glycan array binding signal (z-score),[16],-1.1
same,glycan array binding signal (z-score),Gal(b1-3)GlcNAc6S,0.905
same,glycan array binding signal (z-score),[17],-0.849
same,glycan array binding signal (z-score),[18],-1.24
same,glycan array binding signal (z-score),[19],0.415
same,glycan array binding signal (z-score),[20],-0.536
same,glycan array binding signal (z-score),[21],-0.252
same,glycan array binding signal (z-score),[22],-0.682
same,glycan array binding signal (z-score),[23],-0.163
same,glycan array binding signal (z-score),[24],-0.548
same,glycan array binding signal (z-score),[25],0.468
same,glycan array binding signal (z-score),[26],-1.06
same,glycan array binding signal (z-score),Gal(b1-4)Gal,-0.309
same,glycan array binding signal (z-score),[27],-0.252
same,glycan array binding signal (z-score),[28],-0.422
same,glycan array binding signal (z-score),Gal(b1-4)Glc,-0.567
same,glycan array binding signal (z-score),Gal(b1-4)Glc6S,-0.07
same,glycan array binding signal (z-score),Gal(b1-4)GlcNAc,-0.702
same,glycan array binding signal (z-score),[29],-0.555
same,glycan array binding signal (z-score),Gal(b1-4)GlcNAc(b1-2)Man,0.169
same,glycan array binding signal (z-score),[30],0.674
same,glycan array binding signal (z-score),[31],-0.165

# Reformatted: entries from further up
binder	measurement	setting	value
B1	glycan array binding signal (z-score)	[4]	-0.766
same	glycan array binding signal (z-score)	[9]	0.912
same	glycan array binding signal (z-score)	[25]	0.468
